These are yes or no findings as the source states them, for the method shown. For some assays here: In cells and extracts the contact can be indirect. Some entries that bind do so weakly or less than the wild type. For some assays here: Where a sequence is shown, tags or fusion partners need not be part of it. Each block holds one binder with its values, some of them ahead of it.
How the values were obtained:
[1] = biological target: T1, Src homology 2 domain containing protein tyrosine phosphatase substrate 1 (SHPS-1), endogenous in porcine aortic smooth muscle cells (porcine) (UniProt F1S887); experiment: co-immunoprecipitation from lysates of quiescent pSMCs, with anti IAP and with anti SHPS-1 antibodies
T1 sequence: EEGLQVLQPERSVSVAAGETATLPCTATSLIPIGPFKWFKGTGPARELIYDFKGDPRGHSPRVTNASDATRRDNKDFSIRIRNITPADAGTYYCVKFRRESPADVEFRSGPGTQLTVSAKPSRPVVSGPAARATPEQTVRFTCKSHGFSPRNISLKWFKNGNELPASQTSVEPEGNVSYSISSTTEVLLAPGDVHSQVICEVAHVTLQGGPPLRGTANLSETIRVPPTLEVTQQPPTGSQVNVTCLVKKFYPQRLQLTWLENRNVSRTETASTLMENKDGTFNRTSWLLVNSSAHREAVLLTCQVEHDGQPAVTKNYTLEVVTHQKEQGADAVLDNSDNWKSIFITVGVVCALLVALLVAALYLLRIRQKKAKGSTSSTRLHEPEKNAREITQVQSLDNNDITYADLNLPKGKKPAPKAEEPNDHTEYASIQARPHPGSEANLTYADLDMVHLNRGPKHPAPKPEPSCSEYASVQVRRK

[2] = biological target: T1, Src homology 2 domain containing protein tyrosine phosphatase substrate 1 (SHPS-1), endogenous in porcine aortic smooth muscle cells (porcine); experiment: SHPS-1 immunoprecipitated from transfected pSMCs, immunoblot for FLAG

binding [1]: binds
B1: integrin associated protein (IAP), endogenous in porcine aortic smooth muscle cells (receptor, UniProt Q9GKE8 19-303, looked up)
chain: QLIFNITKSVEFTVCNTTVTIPCFVNNMEAKNISELYVKWKFKGKDIFIFDGAQHISKPSEAFPSSKISPSELLHGIASLKMDKRDAVIGNYTCEVTELSREGETIIELKRRFVSWFSPNENILIVIFPILAILLFWGQFGILTLKYKSSYTKEKTIFLLVAGLMLTIIVIVGAILFIPGEYSTKNACGLGLIVIPTAILILLQYCVFMMALGMSSFTIAILILQVLGHVLSVVGLSLCVSECTPVHGPLLISGLGIIALAELLGLVYMKCVASDHKTIQPPRNN

binding [2]: binds
B2: Full-length porcine IAP with a C-terminal FLAG epitope (IAPfl) (receptor, UniProt Q9GKE8 19-303, looked up, not shown: small tags and cut ends)
chain: B1 chain

Reference: patent US20140141002A1
